Source: PubChem BioAssay AID2685 (National Center for Advancing Translational Sciences (NCATS), 2010)
About 2,100 (0.66%) of roughly 320,000 compounds were called active. This list was built around the results that the source calls inconclusive (neither active nor inactive); the mix of calls is not that of the screen. Calls follow the shape of the dose curve; as a rule, active = well fitted inhibition curve with a large enough effect in the signal ratio, with a control signal flat (not every such curve was filed as active); inconclusive = small, poorly fitted or top-dose-only effect, or effect the other way, or a change in a side signal; inactive = flat fitted curve, though single readings scatter; the % refers to the signal ratio. A potency beside an inconclusive call is a rough fit, not a confirmed value.

Experiment: qHTS Assay for Lipid Storage Modulators in Drosophila S3 Cells
Conditions: BODIPY lipid droplet fluorescence, 18-24 h, cells fed with added oleic acid; lipid storage change, negative = inhibition: at 46.1 µM (top of the series) unless noted
Procedure, shortened: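 Drosophila S3 cells got compounds at several concentrations plus oleic acid (400 uM solution). Laser-scanning cytometry with 488 nm excitation read lipid droplets at 500-530 nm and cells at 575-640 nm. Percent activity was relative to 20 uM Triacsin C.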
% is scaled to controls: 0 for no effect and ±100 for the full control effect; potency is read from the fitted curve at half-maximal effect.

Row | Compound | Potency | lipid storage change, negative = inhibition | outcome
1 | O=C(c1cccc(S(=O)(=O)Nc2ccc(F)cc2)c1)N1CCC1 | inconclusive: 14.6 µM [activator, partial curve] | – | –
2 | CC(C)(C)OC(=O)NC(CNCc1ccccc1)Cc1ccccc1 (configuration not stated) | – | inconclusive: 18.8% | –
3 | Cc1c(Cl)cccc1NC(=O)[C@@]1(CC(=O)O)CC(/C=C/c2ccccc2)=NO1 | – | inconclusive: -66.8% | –
4 | Cn1c(NCc2ccco2)nc2c1c(=O)n(Cc1ccc(Br)cc1)c(=O)n2C | inconclusive: 29.1 µM [falling, single point] | – | –
5 | CC(C)C(=O)NC(c1ccccc1Cl)c1c(O)ccc2ccccc12 (configuration not stated) | – | inconclusive: -20.2% | –
6 | COc1cccc(-c2nc(-c3ccncc3)no2)c1 | inconclusive: 29.1 µM [activator, single point] | – | –
7 | O=C(OCC#CCSc1nnc(-c2cccc3ccccc23)o1)c1ccc(Cl)cc1 | inconclusive: 5.8 µM [activator, partial curve, poor fit] | – | –
8 | COc1cc(NC2c3ncccc3C(=O)N2Cc2ccco2)cc(OC)c1 (configuration not stated) | – | inconclusive: -65.4% | –
9 | CCOC(=O)c1ccc(Nc2nc(C)cc(C)n2)cc1 | – | inconclusive: 10.9% | –
10 | Cc1cnc(C)c(N2CCN(Cc3nc(-c4ccc(C)o4)oc3C)CC2)n1 | – | inconclusive: 5.56% | –
11 | CC(=O)Nc1cccc(OCc2cnc(Cl)s2)c1 | – | inconclusive: -5.68% [at 9.22 µM] | –
12 | Cc1noc(C)c1C(=O)OCC(=O)NC1CCCCC1C (configuration not stated) | – | inconclusive: -10.3% | –
13 | c1ccc(-c2nnc(-c3c[nH]c4ccccc34)nc2-c2ccccc2)cc1 | – | inconclusive: 182% | –
14 | O=C(CNc1ccccc1N1CCCC1=O)Nc1cc(C(F)(F)F)ccc1-n1cncn1 | inconclusive: 6.51 µM [falling, single point] | – | –
15 | Cc1ccc(NNC(=O)c2cc(C(C)(C)C)nn2Cc2ccccc2)cc1 | inconclusive: 5.8 µM [falling, partial curve, poor fit] | – | –
16 | Cc1cc(=O)oc2cc(OCC(=O)N3CCCc4ccccc43)ccc12 | inconclusive: 4.11 µM [activator, single point] | – | –
17 | O=C(C1CCN(CCCc2ccccc2)CC1)N1CCCCC1 | inconclusive: 0.116 µM [activator, full curve, poor fit] | – | –
18 | C=CCn1c(C)nnc1SCC(=O)c1c(N)n(C2CC2)c(=O)[nH]c1=O | – | inconclusive | –
19 | O=C(c1ccc(C(F)(F)F)cc1)N1CCN(S(=O)(=O)c2ccc3c(c2)OCCCO3)CC1 | – | inactive: 16.3% | –
20 | COc1ccccc1NC(=O)C(C)OC(=O)C(C)SCC(=O)Nc1ccc(C)cc1 (configuration not stated) | inconclusive: 0.0651 µM [activator, full curve, poor fit] | – | –
21 | CCC(C)NC(=O)N[C@@H](CCSC)C(=O)OC (some centres not stated) | – | inconclusive: -8.73% | –
22 | Cn1c(SCC(=O)Nc2ccc3[nH]c(=O)[nH]c3c2)nnc1-c1ccccc1 | inconclusive: 0.103 µM [activator, full curve, poor fit] | – | –
23 | c1ccc2nc(-c3nc4ccccc4o3)ccc2c1 | inconclusive: 0.0046 µM [falling, full curve, poor fit] | – | –
24 | CC(C)c1ccc(NC(=O)c2cc3c(=O)n(C)c4ccccc4c3n2C)cc1 | – | inconclusive: 3.46% | –
25 | O=C(COc1ccccc1)Nc1c2c(nn1-c1ccc(F)cc1)CS(=O)(=O)C2 | – | inconclusive: 18.8% | –
26 | O=C(Nc1nnc(C2=COCCO2)o1)c1ccc(F)cc1 | inconclusive: 16.4 µM [falling, partial curve] | – | –

Row | Compound | Potency | lipid storage change, negative = inhibition | outcome
27 | CC(C)C(NS(=O)(=O)c1ccc2c(c1)OCCO2)C(=O)NCCc1ccccn1 (configuration not stated) | – | inconclusive: -32.7% | –
28 | Cc1c(C(=O)NCCSCc2cccc(C(F)(F)F)c2)cnn1-c1ccc(Cl)cc1 | – | inconclusive: -21.9% | –
29 | COCCSc1ccccc1C(=O)N1CCCC(C)C1 (configuration not stated) | – | inconclusive: -15.8% | –
30 | O=C(CCc1nnc(Cc2ccc3c(c2)OCO3)o1)NC(c1ccccn1)C(F)(F)F (configuration not stated) | – | inconclusive: -19.8% | –
31 | CC(C)(C)c1cc(C(=O)N2CCc3ccccc32)ccn1 | – | inconclusive: 23.8% | –
32 | CCCN(CCC)Cc1c(C(=O)N/N=C/c2c[nH]c3ccccc23)nnn1-c1nonc1N | – | – | inactive [at 46.1 µM]
33 | C=CCn1c(Cc2c(C)[nH]c3ccccc23)nnc1SCC(=O)NCc1ccc(F)cc1 | – | inconclusive: -21.2% | –
34 | O=C(CSc1ncnc2scc(-c3ccccc3)c12)NCc1ccc2c(c1)OCO2 | – | inconclusive: 46.1% | –
35 | CC(O)CNC(=O)C1CCN(Cc2ccc(OCc3ccccc3)cc2)CC1 (configuration not stated) | – | inconclusive: 20.3% | –
36 | CCOC(=O)C1CCN(C(=O)CSC2=NCCS2)CC1 | – | inconclusive: 43.9% | –
37 | O=C(CS(=O)(=O)c1ccccc1)Nc1nnc(C(F)(F)F)s1 | – | inconclusive: 89.2% | –
38 | Cc1cc([N+](=O)[O-])nn1CCCC(=O)N1CCN(c2ccccc2)CC1 | inconclusive: 5.8 µM [activator, partial curve] | – | –
39 | CCc1nc(SCC(=O)NCC2CCCO2)c2oc3ccccc3c2n1 (configuration not stated) | – | inconclusive: 12.2% | –
40 | CCOC(=O)CNC(=O)CNC(=O)c1ccc(OCC(C)C)cc1 | inconclusive: 4.11 µM [falling, full curve, poor fit] | – | –
41 | Cc1cccc(Cl)c1OCCCCn1ccnc1 | – | inconclusive: 49.6% | –
42 | CCOC(=O)N1CC(=O)Nc2ccc(Br)cc2C1c1ccccc1 (configuration not stated) | – | inconclusive: 16.6% | –
43 | Cc1ccccc1Cn1cnc2c([N+](=O)[O-])c(C)c(C)cc21 | – | inconclusive: 20.6% | –
44 | CCCCOc1ccc(/C=C/C(=O)OCC(=O)NC2CCS(=O)(=O)C2)cc1OCC (configuration not stated) | – | inconclusive | –
45 | CCCCNC(=O)CS(=O)Cc1nc(-c2cccc(C)c2)oc1C (configuration not stated) | – | inconclusive: 66.1% [activator] | –
46 | CCS(=O)(=O)N1CCC(C(=O)NCc2cccs2)CC1 | inconclusive: 29.1 µM [cytotoxic, partial curve] | – | –
47 | Nc1c(-c2ccc(Cl)cc2)nnn1-c1ccccc1 | – | inconclusive: 46.1% | –
48 | Cc1nc(NC(=O)c2cccc(Cl)c2)sc1-c1csc(Nc2cccc(Cl)c2)n1 | – | inconclusive: -3.65% | –
49 | O=C(CN1CCC(O)(c2cccc(C(F)(F)F)c2)CC1)NCCc1ccccc1 | inconclusive: 18.4 µM [falling, single point] | – | –
50 | O=C1[C@H]2CC3C=CC2(O3)[C@@H]2OCCCN12 (some centres not stated) | inconclusive: 29.1 µM [falling, single point] | – | –
51 | CCC1=NN2C(=N)/C(=C\c3cccn3-c3ccc(C)c(C)c3)C(=O)N=C2S1 | – | inconclusive: -54.4% | –
52 | CS(=O)(=O)N(CC(=O)N1CCN(Cc2ccccc2)CC1)c1ccccc1Br | inconclusive: 0.366 µM [activator, full curve, poor fit] | – | –

Single records (already shown):
CC(O)CNC(=O)C1CCN(Cc2ccc(OCc3ccccc3)cc2)CC1 (configuration not stated) is listed with lipid storage change, negative = inhibition: inconclusive: 20.3%
CC(C)C(NS(=O)(=O)c1ccc2c(c1)OCCO2)C(=O)NCCc1ccccn1 (configuration not stated) is listed with lipid storage change, negative = inhibition: inconclusive: -32.7%
Cn1c(SCC(=O)Nc2ccc3[nH]c(=O)[nH]c3c2)nnc1-c1ccccc1 is listed with Potency: inconclusive: 0.103 µM [activator, full curve, poor fit]
O=C(CCc1nnc(Cc2ccc3c(c2)OCO3)o1)NC(c1ccccn1)C(F)(F)F (configuration not stated) is listed with lipid storage change, negative = inhibition: inconclusive: -19.8%

(cont.)

Row | Compound | Potency | lipid storage change, negative = inhibition | outcome
53 | CC(C)(C)C(=O)NC(CC(=O)O)c1ccccc1 (configuration not stated) | – | inconclusive: -25.5% | –
54 | CCCN(CCO)C1CCN(CCc2ccccc2)CC1 | inconclusive: 6.51 µM [activator, single point] | – | –
55 | O=C(CCl)N=c1sccn1Cc1ccc(Cl)cc1Cl | – | inconclusive: -2.86% | –
56 | CCOc1ccccc1C(=O)N1CCCCC1C (configuration not stated) | inconclusive: 14.6 µM [falling, partial curve, poor fit] | – | –
57 | CCOc1cccc2cc(C(=O)NCc3ccc(C)cc3)c(=N)oc12 | – | inconclusive: -25.7% | –
58 | Cc1cccc(OCC(=O)Nc2ccc(N3CCN(S(C)(=O)=O)CC3)cc2)c1C | – | inconclusive: 10.3% | –
59 | O=C(NCc1nc(-c2ccccc2)no1)c1cccs1 | – | inconclusive: 7.71% | –
60 | CC(CN1CCN(C)CC1)OC(=O)c1ccccc1Cl (configuration not stated) | – | inconclusive: -16.8% | –
61 | Cn1c(CNC(=O)c2ccc(Cl)cc2)nnc1SCC(=O)NC1CCCC1 | – | inconclusive: 1.9% | –
62 | Cc1ccc(C(=O)NC(C)c2ccccc2)cc1Br (configuration not stated) | – | inconclusive: 7.9% | –
63 | COc1ccc(C(C(=O)NC2CCCC2)N(C(=O)c2ccoc2C)c2cc(C)cc(C)c2)cc1 (configuration not stated) | – | inconclusive: -26.7% | –
64 | CC(C)n1c(SCc2ccc(Cl)cc2)nc2c1c(=O)[nH]c(=O)n2C | – | inconclusive: 15.4% | –
65 | CC(C)Oc1ccc(OCCCN2CCCCCC2)cc1 | – | inconclusive: 45.6% | –
66 | CC1=CC(=C2C(=O)c3ccccc3C2=O)C=C(C)N1Cc1ccco1 | inconclusive: 29.1 µM [activator, single point] | – | –
67 | Cc1ccc(C)c(NS(=O)(=O)c2ccc3c(c2)Cc2cc(S(=O)(=O)Nc4cc(C)ccc4C)ccc2-3)c1 | – | inconclusive: 39.1% | –
68 | COc1cc(C(=O)N/N=C/c2sc(N3CCOCC3)nc2-c2ccccc2)cc(OC)c1OC | – | inconclusive: -15.7% | –
69 | O=C(N/N=C/c1ccccc1O)c1ccc2c(c1)OCO2 | inconclusive: 18.4 µM [falling, single point] | – | –
70 | CC1CCN(c2ncnc3ccccc23)CC1 | inconclusive: 16.4 µM [falling, single point] | – | –
71 | CC(=O)Oc1ccc(Nc2ccccc2)cc1 | inconclusive: 9.2 µM [falling, partial curve, poor fit] | – | –
72 | CC(=O)Nc1ccc(S(=O)(=O)N2CCN(c3ccccn3)CC2)cc1 | – | inconclusive: 153% | –
73 | CCn1c(CSc2nnc(-c3ccc4c(c3)OCO4)o2)nc2cc(S(=O)(=O)N(C)C)ccc21 | inconclusive: 2.06 µM [activator, partial curve] | – | –
74 | O=c1c2ccccc2ncn1CCCCOc1ccccc1F | – | inconclusive: -16.5% | –
75 | O=C(COc1ccc(Br)cc1)NCCCNC(=O)c1ccncc1 | – | inconclusive: 19.3% | –
76 | Cc1ccc(OCCCC(=O)Nc2ccc(S(=O)(=O)N3CCOCC3)cc2)cc1 | – | inconclusive: -35.8% | –
77 | Cc1ccc2nc(SCC(=O)Nc3cc(C(F)(F)F)ccc3N3CCOCC3)[nH]c2c1 | inconclusive: 5.17 µM [activator, partial curve] | – | –
